Measurements reported in PubChem BioAssay AID1224830 (NIAID, 2016).
Test: 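Genes whose knock-down alters the TNF-alpha reporter response to LPS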 (primary screen). Cells: human THP-1 monocytic leukaemia cells, TNF dual-luciferase reporter clone, PMA-differentiated to macrophage-like cells. Knock-down reagent: siRNA pool against human genes, 50 nM. Duration: LPS for 4 h, given about 3 days after siRNA transfection. Conditions: bacterial LPS (TLR4 ligand), 10 ng/ml. Measurement: 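Ratio of firefly to renilla light, scaled to the plate median and expressed as a robust z-score per replicate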. Reading the numbers: TNF reporter robust z-score: higher = stronger TNF reporter response to LPS. Hit rule: 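Each well counts as active if its z-score is over 2.8 or under -1.5; controls are left without a call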.
The whole screen tested about 18,000 reagents; this is a random part of them. Of all reagents, about 2,900 (16%) are marked active. 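Calls are made per well; low scores hint the gene aids the LPS response, high scores that it dampens it.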 Repeated entries: four replicate wells of each siRNA pool.

What did the screen give for HNRNPR?
TNF reporter robust z-score: 1.23; Outcome: inactive

With HNRNPR, what was measured?
TNF reporter robust z-score: 0.32; Outcome: inactive

For HNRNPR, how do the results read?
TNF reporter robust z-score: 0.17; Outcome: inactive

With HNRNPR, what was measured?
TNF reporter robust z-score: 1.28; Outcome: inactive

How did the screen score PLIN4?
TNF reporter robust z-score: -0.33; Outcome: inactive

With PLIN4, how do the results read?
TNF reporter robust z-score: -0.34; Outcome: inactive

For PLIN4, what was measured?
TNF reporter robust z-score: 0.05; Outcome: inactive

For PLIN4, what was measured?
TNF reporter robust z-score: -0.17; Outcome: inactive

With ALKBH1, what does the deposit list?
TNF reporter robust z-score: 1.48; Outcome: inactive

What is on record for ALKBH1?
TNF reporter robust z-score: 3.88; Outcome: active

For ALKBH1, how do the results read?
TNF reporter robust z-score: 0.74; Outcome: inactive

For ALKBH1, what does the deposit list?
TNF reporter robust z-score: -0.33; Outcome: inactive

What is on record for CPNE5?
TNF reporter robust z-score: -2.12; Outcome: active

With CPNE5, how do the results read?
TNF reporter robust z-score: -1.53; Outcome: active

What did the screen give for CPNE5?
TNF reporter robust z-score: -1.97; Outcome: active

For CPNE5, how do the results read?
TNF reporter robust z-score: -1.68; Outcome: active

What did the screen give for CYP4F11?
TNF reporter robust z-score: -1.89; Outcome: active

What is on record for CYP4F11?
TNF reporter robust z-score: -0.69; Outcome: inactive

For CYP4F11, how do the results read?
TNF reporter robust z-score: -1.04; Outcome: inactive

With CYP4F11, how do the results read?
TNF reporter robust z-score: -0.79; Outcome: inactive

For ABCB10, how do the results read?
TNF reporter robust z-score: -1.18; Outcome: inactive

How did the screen score ABCB10?
TNF reporter robust z-score: -1.22; Outcome: inactive

Which result is listed for ABCB10?
TNF reporter robust z-score: -1.43; Outcome: inactive

Which result is listed for ABCB10?
TNF reporter robust z-score: -0.84; Outcome: inactive

With TBX18, how do the results read?
TNF reporter robust z-score: -0.79; Outcome: inactive

For TBX18, what was measured?
TNF reporter robust z-score: 0.59; Outcome: inactive

With TBX18, what was measured?
TNF reporter robust z-score: 0.37; Outcome: inactive

How did the screen score TBX18?
TNF reporter robust z-score: -0.75; Outcome: inactive

What is on record for CCDC197?
TNF reporter robust z-score: 3.1; Outcome: active

Which result is listed for CCDC197?
TNF reporter robust z-score: 2.97; Outcome: active

How did the screen score CCDC197?
TNF reporter robust z-score: 4.02; Outcome: active

With CCDC197, what does the deposit list?
TNF reporter robust z-score: 0.04; Outcome: inactive

What is on record for DCAF8?
TNF reporter robust z-score: 0.42; Outcome: inactive

For DCAF8, what does the deposit list?
TNF reporter robust z-score: 0.17; Outcome: inactive

What did the screen give for DCAF8?
TNF reporter robust z-score: 1.1; Outcome: inactive

Which result is listed for DCAF8?
TNF reporter robust z-score: 1.03; Outcome: inactive

For ABHD17C, what does the deposit list?
TNF reporter robust z-score: -0.7; Outcome: inactive

For ABHD17C, what does the deposit list?
TNF reporter robust z-score: 0.2; Outcome: inactive

Which result is listed for ABHD17C?
TNF reporter robust z-score: -0.04; Outcome: inactive

With ABHD17C, what was measured?
TNF reporter robust z-score: -0.77; Outcome: inactive

With BPIFA1, what does the deposit list?
TNF reporter robust z-score: -1.38; Outcome: inactive

For BPIFA1, what was measured?
TNF reporter robust z-score: -1.61; Outcome: active

With BPIFA1, what does the deposit list?
TNF reporter robust z-score: -1.14; Outcome: inactive

For BPIFA1, how do the results read?
TNF reporter robust z-score: 0.57; Outcome: inactive

Which result is listed for GSTM2?
TNF reporter robust z-score: 0.1; Outcome: inactive

What is on record for GSTM2?
TNF reporter robust z-score: -0.06; Outcome: inactive

What is on record for GSTM2?
TNF reporter robust z-score: 0; Outcome: inactive

For GSTM2, how do the results read?
TNF reporter robust z-score: 0.96; Outcome: inactive
